Reference: PMC7816512
No constants are given. Whether binding was seen depends on the method and setting. Binding seen in cells or lysates may run through a third protein. A yes stands for co-enrichment or nearness to the bait. Other partners may have been found. Sequences can lack the tags named with a protein.

B1: Lsd2 (protein, UniProt Q10135 1-1235)
chain: MNTSENDPDGHYDFPEMTEHHSDRASSYANANNVNSTQPQLVSSEQALLAILGGGLQSITPNSVNQNAYSRSTYRTDGGLNSQPVSSLNNQWGNYNPAFLPSRYDSSFHPYTISQAANQPFPQHLLGNSNAGVAQQSGMRTIGLPPTVGSSFPQQKSSTYENFFDANSPSSQQFPSTYPSRSQNPLSSSGDGSTAIHAGPIQHQNSNAFSNYPYPLDASHLSSQQLLSMYRDQVSHGVTPSTFRNHESFMPTQLVSATELSKSVDNAVLPIPPTTAPAVVSPPASSFPLMSSAATSGNISSPALFDSELGARPEGSVAIEPSRVLLQWSSQSSSHTIPSAGASIPTSSLKSFFEHAAEAARKCNLDPRALESFEQHMLSDRLHDPVVLFHYFQIRNSICWLWIKNPTHAISRVEAQGVCVDRCLFQLASLAYEFLVRYGYINYGCLSFDSSFTNETNTGTTSSSASKQKTIAVVGAGLTGLICARQLTGLFSQYSSSFLSKNELPPKVIILEAKERTGGRIYSRALPVSHTSATQINHHTSNSNSISSNSTSLNPKDVTDPSHIPSAIDLGFQFLFSPMDDILLNLLNKQLGIEVTEMTGSDLVYDETDTKVLDMVEVKKLNILWEKLLEYVSVCFFINVEESVRISWISQFQLFIDEMFPDHLSKSLSLNASHEFSFKKTMLILIDEVSSYAKLGNSQKKFLIWCFKVAELDDTLYPLNTVDTDFSKDILIPKVARRGLSQLPWALQSYPSPLNIHYEKFVSKVTIENDKCTLDCKDNSSYEVDQVVIACSPSHFSSNIEFSPGLPNFVTENIKSIDFKPGKKVILRYAAAFWRKNIRSFGIIPKSLSQEMNNDENDGKSCFVLRIWNMLPETGVPILVADINPQMTSSSSNETSHLIQELHSLIVDHFQNDSNSSADLLDAWVTNWSRNGVYDGLNSYPNFANDKQQYEKRFRQSQLSYNLGRLHIAGDYIFSCVGCRTLQRSFLSGLSVCTGIIDSLAPISLTIPIIGETSRKELDQFLRNSKVNNFDPNAEAQRHLSYQARYRLKKQERLDEHKEEQEQLVTELLGYLPEPPSKPNANPFLLYQKMQWHVCRALADEDKRRLTGDSTAKATINETRAKLGKTWRQLDDLGKKPWIDEIAAQREAYAGKILRYQRLTKEYEMRAEQIRNDYAAKCQDEPIPDDEARLFMQAQREEEQRKQTQDDNISKSREASDEEYHDDGSSDSGYNGTRY
B2: Byr3 (protein, UniProt P36627 1-179)
chain: MESESVPTVPQTTRPGPRCYNCGENGHQARECTKGSICYNCNQTGHKASECTEPQQEKTCYACGTAGHLVRDCPSSPNPRQGAECYKCGRVGHIARDCRTNGQQSGGRFGGHRSNMNCYACGSYGHQARDCTMGVKCYSCGKIGHRSFECQQASDGQLCYKCNQPGHIAVNCTSPVIEA
B3: Alp13 (protein, UniProt O13953 1-337)
chain: MAVSYKVNERVLCFHGPLLYEAKIVDTEMKGDVTTYLIHYKGWKNSWDEWVEQDRILQWTEENLKTQKELKNAAISTRQKPTSKKSASSTSKHDSTGVKTSGKRSRESSTVTVDGDSHELPSRIKTQKSESPIPQQVKRDGTTDAKNEETTKPENNEKDDFEEEPPLPKHKISVPDVLKLWLVDDWENITKNQQLIAIPRNPTVRAAIAAFRESKISHLNNEIDVDVFEQAMAGLVIYFNKCLGNMLLYRFERQQYLEIRQQYPDTEMCDLYGVEHLIRLFVSLPELIDRTNMDSQSIECLLNYIEEFLKYLVLHKDEYFIKEYQNAPPNYRSLVGV
B4: Usp107 (protein, UniProt Q8WZK0 1-695)
chain: MQRQNTQAAGMPMMPQVPMVGNGVPYVVPIQPVFAPLPPDYRSLYKKLYGQGAFLVDNPVEASSPYDFSQPILKFGKLPIKQVLRDNESQQKDRKNLPRNQKSNEIQEKQTFQTPSSEKSTTERESRPFVPPNSQQMRRMLFIGNIPKELDDFWMDKILRLSGKLASWRRVADADNSMTSFGFAEFESNEQFSRALEALNDFVVPPLYEGGPSTRLSLITDVENEGLYREWQTSRYARNKQKEINILQQIRFNLERICQDIGNFDVRSRIERAARQAREKNEKLLQNVKTSEIPINAADLEGINPELLPVIEEEIRSFRDQSAMKKREKQRSKDEYASLYKEYTRKEQEKLRKQNDDLQNLLSKHRISRIPMSTVNAFLRAEDSIPESFSDEQAYYEEKRRKDQLEAEEYYARERRWMNREKARTAALEREAAREEEERVNNTSFGTYLSEKLASFDDDEEARVSRDEYFVDRAAWIRHRAVARAREEDADALDRKEEERELRTRGEGATVETENYVENGKLVTSEMPQHENGPFKIKIQTKKPAVPSERREFGLPERLLLEEEDEEPQGYSPNPQKPKPAMEENDAEKTKRLRSLIEKIPVEAESLWALPIDWSKVTEDLLKEEMQAFVTKKIIEYIGIQEDSLITFTIDHIRQHKGAEQLVSELDLALAEDAPEFVSKVYRYLHVLLILRSEA
B5: Uaf2 (protein, UniProt Q09176 1-216)
chain: MASHLASIYGTEQDKVNCSFYYKIGACRHGERCSRKHVKPNFSQTILCPNMYKNPIHEPNGKKFTQRELAEQFDAFYEDMFCEFSKYGEVEQLVVCDNVGDHLVGNVYVRFKYEESAQNAIDDLNSRWYSQRPVYAELSPVTDFREACCRQHETSECQRGGLCNFMHAKKPSPQLLRDLVLAQRKYLALNAAEEMKKEPNSDSTNRWVSVTAERKN
B6: Cdc5 (protein, UniProt P39964 1-757)
chain: MVVLKGGAWKNTEDEILKAAVSKYGKNQWARISSLLVRKTPKQCKARWYEWIDPSIKKTEWSREEDEKLLHLAKLLPTQWRTIAPIVGRTATQCLERYQKLLDDLEAKENEQLGLISGEGAEAAAPVNDPNSRLRFGEAEPNLETLPALPDAIDMDEDEKEMLSEARARLANTQGKKAKRKDREKQLELTRRLSHLQKRRELKAAGINIKLFRRKKNEMDYNASIPFEKKPAIGFYDTSEEDRQNFREKREADQKIIENGIRNNEMESEGRKFGHFEKPKPIDRVKKPNKDAQEEKMRRLAEAEQMSKRRKLNLPSPTVSQDELDKVVKLGFAGDRARAMTDTTPDANYSTNLLGKYTQIERATPLRTPISGELEGREDSVTIEVRNQLMRNREQSSLLGQESIPLQPGGTGYTGVTPSHAANGSALAAPQATPFRTPRDTFSINAAAERAGRLASERENKIRLKALRELLAKLPKPKNDYELMEPRFADETDVEATVGVLEEDATDRERRIQERIAEKERLAKARRSQVIQRDLIRPSVTQPEKWKRSLENEDPTANVLLKEMIALISSDAINYPFGNSKVKGTANKVPDLSNEEIERCRLLLKKEIGQLESDDYIQFEKEFLETYSALHNTSSLLPGLVIYEEDDEDVEAAEKFYTNDIQRDLAKKALECNKLENRVYDLVRSSYEQRNFLIKKISHAWKALQTERKNLTCYEFLYNQERLALPNRLEAAEIELSKMQQIEAYAQQDYARVTGQN
B7: Cip1 (protein, UniProt O42923 1-490)
chain: MPNEIFPWKIRVDESRGLAGNSGTKKSNHEALSRLQSPLNSPKLQPIGSPQASRKTSGSGSSAPLYPKWSGALSLASSRAASPAPSDSFPTFGYSQLGGLENSSKGSALFNSANSIGTPYLSSRNSNSANEASAMAFHNVSPPSGAESSSESKSFSASGKGNKADTSAEPSLDAFNSTQIKAGSTANSNSTPVEPGEDTIPTAIVVKNIPFSLEKDTLLDHFKQLGIPRPYAFNYHYDNGIFRGLAFANFYRPEEAQVVVQTLNGYEINGRRLRVEWKRQLPAAEREKVEKAKKRQAEERRRKQQYKMFEVSFTDQGLNLNDTGTLETYSRLLLFAHQCIPSREITFETTSKDGNLLNAIRIFCLYFDLDYYARPNGEVLKLVVTHPNKKNTSVSQSQPASPNLRFNMPAPLATRFLQEHSLNGTKSAPITPPPSFAVPLTNQLRSIDDKIYGNESPLQKASTLSSPFNSKNDNDASTSASKQSFGVSHF

What follows are binders tested against T1, FLAG-HA-Rbm10 (S. pombe) (UniProt P87143) (assay: affinity purification with mass spectrometry; two-step purification (anti-FLAG beads, 3xFLAG peptide elution, then uMACS HA magnetic beads) of overexpressed FLAG-HA-Rbm10 from S. pombe lysate with Benzonase; three independent purifications; control purification from an untagged strain).
T1 sequence: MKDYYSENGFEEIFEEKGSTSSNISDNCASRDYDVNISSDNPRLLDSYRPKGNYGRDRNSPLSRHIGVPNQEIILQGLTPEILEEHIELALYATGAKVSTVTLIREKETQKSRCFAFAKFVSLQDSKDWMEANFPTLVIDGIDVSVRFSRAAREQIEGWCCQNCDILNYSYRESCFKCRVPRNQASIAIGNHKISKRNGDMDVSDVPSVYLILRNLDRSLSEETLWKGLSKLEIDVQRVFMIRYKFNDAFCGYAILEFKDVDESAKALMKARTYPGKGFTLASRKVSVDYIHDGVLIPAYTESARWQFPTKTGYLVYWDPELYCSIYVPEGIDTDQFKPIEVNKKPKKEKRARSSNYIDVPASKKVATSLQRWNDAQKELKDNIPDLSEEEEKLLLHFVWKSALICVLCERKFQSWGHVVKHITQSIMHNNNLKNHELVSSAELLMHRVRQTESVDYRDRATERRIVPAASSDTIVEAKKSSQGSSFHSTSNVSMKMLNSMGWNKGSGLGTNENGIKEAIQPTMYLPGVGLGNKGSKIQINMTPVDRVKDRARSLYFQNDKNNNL
With B1 the binding was “binds”.
B2 was tested, and the binding was “binds”.
For B3, the binding was “binds”.
For B4, the binding was “binds”.
For B5, the binding was “binds”.
In the case of B6, the binding is reported as “binds”.
B7 was tested, and the binding was “binds”.
